No constants are given. Whether binding was seen depends on the method and setting. Some results given as binding are weak or reduced against the parent protein; the word gives no strength. Sequences can lack the tags named with a protein.
Target: T1, 3Flag-Aurora B^AUK1 (Trypanosoma brucei) (UniProt Q384J7)
T1 sequence: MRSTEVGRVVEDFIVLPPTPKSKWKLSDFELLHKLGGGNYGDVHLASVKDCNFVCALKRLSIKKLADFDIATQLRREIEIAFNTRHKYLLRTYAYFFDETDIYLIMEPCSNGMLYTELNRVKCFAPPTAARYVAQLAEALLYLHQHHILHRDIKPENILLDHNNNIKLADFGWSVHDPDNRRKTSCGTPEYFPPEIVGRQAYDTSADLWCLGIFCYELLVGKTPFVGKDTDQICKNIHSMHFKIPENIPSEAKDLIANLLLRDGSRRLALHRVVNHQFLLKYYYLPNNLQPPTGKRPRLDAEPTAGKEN
Test: co-purification of co-expressed proteins; 3Flag-Aurora B^AUK1 (or K58R) and INCENP^CPC1 from one pACEBac plasmid in Sf9 cells, purified by a protocol described previously

B1: INCENP^CPC1 (protein, UniProt Q586F4 1-263)
chain: MSNPWNAKLVEELLFRQYEKGEDVSMLLPPPPALSVDQYLKEYEQSTKVLFAYVRNGPANALTPQNINNPRMYGGTPTKGSSSMQRTGNQGGATCATTSSSSACGVDSKAQMQRHPRGLDGSQSAAPSLPLTAGDAAAGQGSMAPPEHIRKRIEWPATVPTNSALKSNSRSRVANLTTKRVAAQERVDPDLIFMQNPEELPLHTIFAKYPKAVESIAALRGGSGDWREDTFTEEEEILYKRELRYSHMGPSQCGFFRSNLIQR
- binding: binds

Source: publication PMC11354203
